Measured values published in publication PMC9438139.
No constants are given. Whether binding was seen depends on the method and setting. Binding seen in cells or lysates may run through a third protein. Some entries that bind do so weakly or less than the wild type. Where a sequence is shown, tags or fusion partners need not be part of it.

Target: T1, GST-CEP-1/p53 fusion protein (C. elegans) (UniProt Q20646)
T1 sequence: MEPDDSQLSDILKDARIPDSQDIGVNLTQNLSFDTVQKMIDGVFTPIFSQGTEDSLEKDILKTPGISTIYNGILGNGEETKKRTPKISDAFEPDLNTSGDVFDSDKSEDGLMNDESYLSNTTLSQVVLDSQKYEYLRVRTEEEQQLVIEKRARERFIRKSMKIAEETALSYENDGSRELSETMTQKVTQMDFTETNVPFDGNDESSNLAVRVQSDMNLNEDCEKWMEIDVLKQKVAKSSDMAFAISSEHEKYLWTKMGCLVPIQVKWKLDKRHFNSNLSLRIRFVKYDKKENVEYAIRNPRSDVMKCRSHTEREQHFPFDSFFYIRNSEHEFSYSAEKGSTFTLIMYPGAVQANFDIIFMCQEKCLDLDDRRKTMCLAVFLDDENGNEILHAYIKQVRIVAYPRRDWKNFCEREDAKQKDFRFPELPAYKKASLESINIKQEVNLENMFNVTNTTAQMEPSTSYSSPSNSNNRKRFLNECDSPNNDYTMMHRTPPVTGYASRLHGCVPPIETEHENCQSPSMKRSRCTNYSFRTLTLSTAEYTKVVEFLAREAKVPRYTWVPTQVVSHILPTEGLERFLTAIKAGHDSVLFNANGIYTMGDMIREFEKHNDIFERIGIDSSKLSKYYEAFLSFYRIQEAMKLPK
Test: pull-down; purified GST or GST-CEP-1 immobilised on glutathione-Sepharose beads, incubated with [35S]methionine-labeled in vitro translated NHR-14 at 4 °C for more than 2 h; SDS-PAGE and autoradiography; only the target purified

B1: [35S]methionine-labeled NHR-14 (protein, UniProt O02151 1-435)
chain: MDFLISTSLSESTSTSADFCVVCGDKAIGKHYGAVACNGCKGFFRRSVWQNLQYTCRFNKQCNIDKDHRNACRYCRFQKCLADGMKPEAIQNERDRIGSTKRRKRSGANSENNSDSEGTPSPKIEVMGNSVSRKLIEMLLDIEHRLASNQSMNALLRDESEMKNSRQRAVNYLIGWTNMLHPLPEVPLADKVLLLKKFSSAFTLLGTLQRSMALPHFVLPNDQVLSISASHPPELFEALTRIIDELLTPLRRLRTDHAEFSCLKALLLLNPDVVGISNNTRERIREARDALLKTLFAYMSNTQNSIDASLRVSSLLMIIPSLISVSSSIMEFPALSDLFGLGDVIKRDTISPKIETPPLEMKPMMPKIAQPPVTSAPTVPTNIMMNKDLISQIMNNPQLFPLLPMPQTASPPMSFMGQSEFGCHLQSMPVKVILS
modifications: [35S]methionine-labeled
In the case of B1, the binding is reported as “binds”.
